# Measurements from the supplement of paper PMC4604168 (melanoma cell lines).
# This is one part of the list. Single values are uncertain, as repeats are few or missing.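 Cells were imaged in 1,536-well plates, and nuclei stained with an antibody against cleaved PARP were counted against all DNA-stained nuclei to give the apoptosis fraction. Screening doses were chosen to leave most cells alive, and resting and induced cleaved-PARP levels differ strongly between cell lines.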
# Key:
# Assay in all cases: cleaved PARP positive nuclei fraction relative to DMSO control; melanoma cells; higher = more apoptosis
# Settings in all cases: library dose: low library concentration; 72 h
# WM115 = test system: WM115
# WM1716 = test system: WM1716
# WM1745 = test system: WM1745
# WM3526 = test system: WM3526
# WM3619 = test system: WM3619
# WM451Lu = test system: WM451Lu
SMILES,cleaved PARP positive nuclei fraction (WM115),cleaved PARP positive nuclei fraction (WM1716),cleaved PARP positive nuclei fraction (WM1745),cleaved PARP positive nuclei fraction (WM3526),cleaved PARP positive nuclei fraction (WM3619),cleaved PARP positive nuclei fraction (WM451Lu)
"CN(c1ncccc1CNc1nc(Nc2ccc3c(c2)CC(=O)N3)ncc1C(F)(F)F)S(C)(=O)=O + O=C(CCCCCCC(=O)Nc1ccccc1)NO [vorinostat] (first compound 0.08 µM, partner dose 0.08 µM)",146%,71.7%,83.6%,53.6%,95.8%,169%
"C[C@]1(O)C[C@@H](c2nc(-c3ccc4ccc(-c5ccccc5)nc4c3)c3c(N)nccn32)C1 + Cc1cc(N2CCOCC2)cc2[nH]c(-c3c(NC[C@@H](O)c4cccc(Cl)c4)cc[nH]c3=O)nc12 [BMS536924] (first compound 0.4 µM, partner dose 0.2 µM)",47.9%,85.8%,118%,27.6%,118%,48.4%
"COc1ccc(C2=N[C@@H](c3ccc(Cl)cc3)[C@@H](c3ccc(Cl)cc3)N2C(=O)N2CCNC(=O)C2)c(OC(C)C)c1 [Nutlin-3] + Clc1ccc(Nc2nnc(Cc3ccncc3)c3ccccc23)cc1 [vatalanib] (first compound 0.1 µM, partner dose 2 µM)",59.7%,95.1%,113%,165%,231%,169%
"CCCCCCCCc1ccc(CCC(N)(CO)CO)cc1 [fingolimod] + Cn1c(Nc2ccc(C(F)(F)F)cc2)nc2cc(Oc3ccnc(-c4ncc(C(F)(F)F)[nH]4)c3)ccc21 [CHIR265] (first compound 2 µM, partner dose 0.08 µM)",511%,218%,132%,180%,162%,84.7%
"C[C@]1(O)C[C@@H](c2nc(-c3ccc4ccc(-c5ccccc5)nc4c3)c3c(N)nccn32)C1 + O=C(Nc1cccc(Cl)c1)Nc1ncc(CCNc2ncnc3ccsc23)s1 [SNS314] (first compound 0.4 µM, partner dose 0.0008 µM)",153%,60.6%,120%,117%,98.7%,325%
"CCCCCCCCc1ccc(CCC(N)(CO)CO)cc1 [fingolimod] + COc1cc2ncnc(Nc3ccc(Oc4ccccc4)cc3)c2cc1OC [SrcI1] (first compound 2 µM, partner dose 2 µM)",98.8%,168%,139%,83.4%,104%,66.9%
"NC1(c2ccc(-c3nc4ccn5c(=O)[nH]nc5c4cc3-c3ccccc3)cc2)CCC1 + CC(C)CCN1c2nc(Nc3cc(F)c(O)c(F)c3)ncc2N(C)C(=O)C1C [BID1870] (first compound 0.4 µM, partner dose 0.2 µM)",181%,204%,92.3%,59.6%,112%,68%
"CCCCCCCCc1ccc(CCC(N)(CO)CO)cc1 [fingolimod] + COc1cc(N2CCC(N3CCN(C)CC3)CC2)ccc1Nc1ncc(Cl)c(Nc2ccccc2S(=O)(=O)C(C)C)n1 [NVP-TAE684] (first compound 2 µM, partner dose 0.08 µM)",102%,185%,129%,73%,95.4%,50.7%
"C[C@@H](N)c1ccc(C(=O)Nc2ccnc3[nH]ccc23)cc1 + Oc1nc(-c2ccc(C(F)(F)F)cc2)nc2c1CSCC2 [XAV939] (first compound 0.4 µM, partner dose 2 µM)",38.4%,97.2%,172%,36%,69.2%,97.8%
"CC1(C)CCC(c2ccc(Cl)cc2)=C(CN2CCN(c3ccc(C(=O)NS(=O)(=O)c4ccc(N[C@H](CCN5CCOCC5)CSc5ccccc5)c(S(=O)(=O)C(F)(F)F)c4)cc3)CC2)C1 + CC1(C)NC(=O)N(c2ccc([N+](=O)[O-])c(C(F)(F)F)c2)C1=O [nilutamide] (first compound 0.4 µM, partner dose 1 µM)",68.4%,229%,322%,133%,106%,108%
"CCN(CC)CCNC(=O)c1c(C)[nH]c(/C=C2\C(=O)Nc3ccc(F)cc32)c1C [sunitinib] + Cn1c(Nc2ccc(C(F)(F)F)cc2)nc2cc(Oc3ccnc(-c4ncc(C(F)(F)F)[nH]4)c3)ccc21 [CHIR265] (first compound 0.4 µM, partner dose 0.08 µM)",491%,66.2%,155%,89.8%,73.8%,40%
"NC(=O)c1ccc(N(C(N)=O)c2c(F)cccc2F)nc1-c1ccc(F)cc1F + OCc1c[nH]c2ccccc12 [Indole-3-carbinol] (first compound 0.4 µM, partner dose 0.8 µM)",222%,53.3%,101%,80.1%,94.7%,91.1%
"Cn1sc(=O)n(Cc2ccccc2)c1=O + CNC(=O)c1cc(Oc2ccc(NC(=O)Nc3ccc(Cl)c(C(F)(F)F)c3)cc2)ccn1 [sorafenib] (first compound 0.4 µM, partner dose 0.4 µM)",97.6%,38.5%,80.7%,20.2%,116%,45.1%
"CS(=O)(=O)c1ccc(C(=O)Nc2ccc(Cl)c(-c3ccccn3)c2)c(Cl)c1 [vismodegib] + C=CCNC1=C2C[C@@H](C)C[C@H](OC)[C@H](O)[C@@H](C)/C=C(\C)[C@H](OC(N)=O)[C@@H](OC)/C=C\C=C(/C)C(=O)NC(=CC1=O)C2=O [Tanespimycin] (first compound 1 µM, partner dose 0.002 µM)",48.8%,171%,102%,20.4%,80.6%,212%
"Cn1sc(=O)n(Cc2ccccc2)c1=O + C=C(c1ccc(C(=O)O)cc1)c1cc2c(cc1C)C(C)(C)CCC2(C)C [Bexarotene] (first compound 0.4 µM, partner dose 2 µM)",37.7%,71%,86.6%,82.3%,93.6%,98%
"C[C@@H](N)c1ccc(C(=O)Nc2ccnc3[nH]ccc23)cc1 + O=C(O)c1ccc(-c2c[nH]c3ncc(-c4ccccc4)cc23)cc1C1CCCC1 [GSK650394] (first compound 0.4 µM, partner dose 0.16 µM)",146%,310%,102%,57.6%,95.7%,51.3%
"CS(=O)(=O)c1ccc(C(=O)Nc2ccc(Cl)c(-c3ccccn3)c2)c(Cl)c1 [vismodegib] + O=C(O)c1ccc2c(c1)nc(Nc1cccc(Cl)c1)c1ccncc12 [CX4945] (first compound 1 µM, partner dose 0.4 µM)",62.3%,34.7%,93.4%,77.4%,94.4%,43.1%
"C[C@]1(O)C[C@@H](c2nc(-c3ccc4ccc(-c5ccccc5)nc4c3)c3c(N)nccn32)C1 + Nc1ccn([C@@H]2O[C@H](CO)[C@@H](O)C2(F)F)c(=O)n1 [gemcitabine] (first compound 0.4 µM, partner dose 0.0004 µM)",82.4%,306%,135%,97.2%,121%,343%
"CCN(CC)CCNC(=O)c1c(C)[nH]c(/C=C2\C(=O)Nc3ccc(F)cc32)c1C [sunitinib] + CN(c1ncccc1CNc1nc(Nc2ccc3c(c2)CC(=O)N3)ncc1C(F)(F)F)S(C)(=O)=O [PF562271] (first compound 0.4 µM, partner dose 0.08 µM)",153%,107%,146%,39.5%,77.9%,65.6%
"NC(=O)c1ccc(N(C(N)=O)c2c(F)cccc2F)nc1-c1ccc(F)cc1F + COc1cc2c(Oc3ccc4[nH]c(C)cc4c3F)ncnc2cc1OCCCN1CCCC1 [cediranib] (first compound 0.4 µM, partner dose 0.4 µM)",36.4%,63.1%,111%,123%,96.3%,152%
"Cn1cnc2c(F)c(Nc3ccc(Br)cc3Cl)c(C(=O)NOCCO)cc21 [selumetinib] + COc1ccc(-c2ccc3c(N4CCOCC4)nc(N4C[C@@H](C)O[C@@H](C)C4)nc3n2)cc1CO [KU0063794] (first compound 0.015 µM, partner dose 0.02 µM)",84.3%,20.2%,75.8%,132%,99.3%,27%
"CC(=O)O[C@@]12CO[C@@H]1C[C@H](O)[C@@]1(C)C(=O)[C@H](O)C3=C(C)[C@@H](OC(=O)[C@H](O)[C@@H](NC(=O)OC(C)(C)C)c4ccccc4)C[C@@](O)([C@@H](OC(=O)c4ccccc4)[C@H]21)C3(C)C [Docetaxel] + Nc1ncn([C@H]2C[C@H](O)[C@@H](CO)O2)c(=O)n1 [decitabine] (first compound 0.0001 µM, partner dose 0.1 µM)",469%,496%,153%,84.5%,131%,142%
"CN(c1ncccc1CNc1nc(Nc2ccc3c(c2)CC(=O)N3)ncc1C(F)(F)F)S(C)(=O)=O + COc1cc(Nc2ncc(F)c(Nc3ccc4c(n3)NC(=O)C(C)(C)O4)n2)cc(OC)c1OC [Tamatinib] (first compound 0.08 µM, partner dose 0.4 µM)",116%,134%,195%,112%,110%,163%
"NC1(c2ccc(-c3nc4ccn5c(=O)[nH]nc5c4cc3-c3ccccc3)cc2)CCC1 + O=C(O)c1ccc(-c2c[nH]c3ncc(-c4ccccc4)cc23)cc1C1CCCC1 [GSK650394] (first compound 0.4 µM, partner dose 0.16 µM)",92.8%,113%,99.1%,80.5%,91.7%,220%

# Copied from the list.
# For cleaved PARP positive nuclei fraction (WM115), CCN(CC)CCNC(=O)c1c(C)[nH]c(/C=C2\C(=O)Nc3ccc(F)cc32)c1C [sunitinib] + Cn1c(Nc2ccc(C(F)(F)F)cc2)nc2cc(Oc3ccnc(-c4ncc(C(F)(F)F)[nH]4)c3)ccc21 [CHIR265] (first compound 0.4 µM, partner dose 0.08 µM) shows 491%
# For cleaved PARP positive nuclei fraction (WM451Lu), CS(=O)(=O)c1ccc(C(=O)Nc2ccc(Cl)c(-c3ccccn3)c2)c(Cl)c1 [vismodegib] + C=CCNC1=C2C[C@@H](C)C[C@H](OC)[C@H](O)[C@@H](C)/C=C(\C)[C@H](OC(N)=O)[C@@H](OC)/C=C\C=C(/C)C(=O)NC(=CC1=O)C2=O [Tanespimycin] (first compound 1 µM, partner dose 0.002 µM) shows 212%
